Test results from PMC3827166.

By UniProt entry, the sequences of proteins in these tests, tags left out.
UniProt Q9JLT0: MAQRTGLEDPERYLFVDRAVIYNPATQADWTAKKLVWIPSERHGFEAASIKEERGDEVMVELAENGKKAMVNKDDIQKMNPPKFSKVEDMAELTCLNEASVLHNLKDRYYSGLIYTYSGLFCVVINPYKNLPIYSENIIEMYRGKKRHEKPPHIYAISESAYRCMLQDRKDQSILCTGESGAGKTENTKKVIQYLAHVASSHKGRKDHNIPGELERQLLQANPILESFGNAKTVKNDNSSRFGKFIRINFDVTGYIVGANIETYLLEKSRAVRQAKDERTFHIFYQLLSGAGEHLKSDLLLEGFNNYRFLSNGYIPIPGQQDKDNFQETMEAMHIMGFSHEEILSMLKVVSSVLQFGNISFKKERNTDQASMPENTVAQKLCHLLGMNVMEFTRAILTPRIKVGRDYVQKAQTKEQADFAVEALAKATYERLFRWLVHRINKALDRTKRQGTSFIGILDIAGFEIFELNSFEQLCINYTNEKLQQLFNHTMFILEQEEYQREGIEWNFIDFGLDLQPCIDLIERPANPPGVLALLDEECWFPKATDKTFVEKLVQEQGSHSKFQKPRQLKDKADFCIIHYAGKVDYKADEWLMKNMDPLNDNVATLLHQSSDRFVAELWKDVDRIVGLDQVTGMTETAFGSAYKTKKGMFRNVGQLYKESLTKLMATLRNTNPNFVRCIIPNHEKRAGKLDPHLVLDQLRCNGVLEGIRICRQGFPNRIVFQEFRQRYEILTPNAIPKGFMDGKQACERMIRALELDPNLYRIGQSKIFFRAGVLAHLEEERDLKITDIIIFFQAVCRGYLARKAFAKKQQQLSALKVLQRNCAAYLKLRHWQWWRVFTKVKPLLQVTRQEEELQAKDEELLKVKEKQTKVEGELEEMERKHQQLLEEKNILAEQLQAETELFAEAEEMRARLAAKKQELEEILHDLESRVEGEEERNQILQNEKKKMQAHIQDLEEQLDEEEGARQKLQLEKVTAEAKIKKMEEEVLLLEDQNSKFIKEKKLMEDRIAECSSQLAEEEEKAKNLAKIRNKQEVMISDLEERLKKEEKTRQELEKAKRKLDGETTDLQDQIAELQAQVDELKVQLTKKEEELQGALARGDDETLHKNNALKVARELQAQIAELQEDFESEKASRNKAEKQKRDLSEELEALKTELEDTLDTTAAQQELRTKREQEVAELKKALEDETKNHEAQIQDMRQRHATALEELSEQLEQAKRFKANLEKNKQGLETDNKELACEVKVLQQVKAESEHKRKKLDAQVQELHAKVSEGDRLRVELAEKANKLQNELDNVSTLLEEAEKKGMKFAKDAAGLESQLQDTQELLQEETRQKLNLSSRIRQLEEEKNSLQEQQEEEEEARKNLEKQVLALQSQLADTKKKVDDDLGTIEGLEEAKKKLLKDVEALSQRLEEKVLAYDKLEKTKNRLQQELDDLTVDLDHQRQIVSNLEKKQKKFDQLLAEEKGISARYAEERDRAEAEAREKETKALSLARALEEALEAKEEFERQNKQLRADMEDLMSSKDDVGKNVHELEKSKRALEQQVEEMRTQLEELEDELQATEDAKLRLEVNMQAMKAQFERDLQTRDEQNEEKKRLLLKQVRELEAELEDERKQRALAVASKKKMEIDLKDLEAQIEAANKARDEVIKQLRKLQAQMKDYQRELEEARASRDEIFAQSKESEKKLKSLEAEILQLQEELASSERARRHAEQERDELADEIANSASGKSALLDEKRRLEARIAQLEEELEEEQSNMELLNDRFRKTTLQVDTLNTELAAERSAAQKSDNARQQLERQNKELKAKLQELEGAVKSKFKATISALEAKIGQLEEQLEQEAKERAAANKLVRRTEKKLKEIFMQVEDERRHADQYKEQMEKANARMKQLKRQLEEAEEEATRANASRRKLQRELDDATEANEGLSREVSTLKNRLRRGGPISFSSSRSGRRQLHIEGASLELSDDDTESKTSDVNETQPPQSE

Biological target: T1, four-and-a-half LIM protein-1 (FHL1) (rat (endogenous in L6GNR4 cells and E17 rat embryo lower limbs)) (UniProt Q9WUH4)
T1 sequence: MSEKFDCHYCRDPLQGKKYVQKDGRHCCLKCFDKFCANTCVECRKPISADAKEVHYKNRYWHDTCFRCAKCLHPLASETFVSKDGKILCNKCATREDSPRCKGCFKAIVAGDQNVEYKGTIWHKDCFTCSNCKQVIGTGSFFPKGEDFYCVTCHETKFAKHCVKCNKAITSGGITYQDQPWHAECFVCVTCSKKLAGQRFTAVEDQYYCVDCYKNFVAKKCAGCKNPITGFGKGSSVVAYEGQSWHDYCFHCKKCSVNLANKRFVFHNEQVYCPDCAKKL
Experiment: affinity purification with mass spectrometry; anti-FHL1 antibody on protein A/G beads, L6GNR4 total protein, overnight at 4°C, RIPA and solubilization buffer washes; SDS-PAGE, CBB-stained bands excised, MALDI-TOF/TOF; mouse IgG and GAPDH antibody as negative controls

binding: binds
Substance: non-muscle myosin IIB (Myh10) (from UniProt Q9JLT0 1-1976)

Results are given in words; binding and its absence hold for the method and conditions named. In cells and extracts the contact can be indirect. A yes stands for co-enrichment or nearness to the bait. Other partners may have been found.
